Here are results for 15 substances from patent US12371454B2 (priority 2019, dated 2025).

A short description of the first series: general procedure: Fmoc solid-phase peptide synthesis; aa155-resin. Particulars: whole synthesis.
“(3S,9S,18S,24R,27S,33S)-18,27-bis[(2S)-butan-2-yl]-3-[2-[3-chloro-4-(trifluoromethyl)phenyl]ethyl]-N,N,7,10,13,16,25,28-octamethyl-9-[(4-methylphenyl)methyl]-2,5,8,11,14,17,20,26,29,32-decaoxospiro[22-thia-1,4,7,10,13,16,19,25,28,31-decazabicyclo[31.3.0]hexatriacontane-30,1′-cyclopentane]-24-carboxamide” had an isolated yield of 3%.

A further series is described as follows: general procedure: Fmoc solid-phase peptide synthesis; 2-chlorotrityl chloride resin. Conditions: late stage modification step.
“(1S,7S,10S,14S,17S,26S,32S)-32-[(3-iodophenyl)methyl]-7,14-diisobutyl-3,4,4,9,13,19,22,25,28-nonamethyl-17-[(1S)-1-methylpropyl]-10-(piperidine-1-carbonyl)-3,6,9,13,16,19,22,25,28,31,34-undecazabicyclo[24.8.6]tetracontane-2,5,8,12,15,18,21,24,27,30,33-undecone” returned a step yield of 69%.

“(3S,9S,18S,21S,25R,28S,34S,36R)-36-benzyloxy-9-(cyclohexylmethyl)-3-[2-[3-fluoro-4-(trifluoromethyl)phenyl]ethyl]-21,28-diisobutyl-7,10,13,16,22,25,29-heptamethyl-18-[(1S)-1-methylpropyl]” gave a step yield of 70%.

“(3S,9S,18S,21S,25S,28S,31S,34S)-31-benzyl-9-[(4-chlorophenyl)methyl]-3-[2-[2-fluoro-4-(trifluoromethyl)phenyl]ethyl]-28-isobutyl-7,10,13,16,21,22,29,32-octamethyl-18-[(1S)-1-methylpropyl]-25-(pyrrolidine-1-carbonyl)-1,4,7,10,13,16,19,22,26,29,32-undecazabicyclo” displayed a step yield of 71%.

In turn, “(3S,9S,18S,21S,25S,28S,34S)-3-[2-(4-chlorophenoxy)ethyl]-28-cyclohexyl-9-(cyclohexylmethyl)-7,10,13,16,21,22,26,29-octamethyl-18-[(1S)-1-methylpropyl]-25-(piperidine-1-carbonyl)spiro” yielded a step yield of 22%.

In the case of “(3S,9S,18S,21S,25S,28S,34S)-3-[(4-chlorophenoxy)methyl]-28-cyclohexyl-9-(cyclohexylmethyl)-7,10,13,16,21,22,26,29-octamethyl-18-[(1S)-1-methylpropyl]-25-(piperidine-1-carbonyl)spiro”, the step yield came out at 16%.

The substance “(3S,9S,18S,21S,25S,28S,34S)-9-(cyclohexylmethyl)-28-isopropyl-7,10,13,16,21,22,26,29-octamethyl-18-[(1S)-1-methylpropyl]-25-(piperidine-1-carbonyl)-3-[2-(3,4,5-trichlorophenyl)ethyl]spiro” had a step yield of 33%.

In the case of “(3S,9S,18S,21S,25S,28S,34S)-28-cyclohexyl-9-(cyclohexylmethyl)-3-[2-(3,4-dichlorophenoxy)ethyl]-7,10,13,16,21,22,26,29-octamethyl-18-[(1S)-1-methylpropyl]-25-(piperidine-1-carbonyl)spiro”, the step yield is reported as 7.5%.

In the case of “(3S,9S,18S,21S,25S,28S,34S)-28-cyclohexyl-9-(cyclohexylmethyl)-7,10,13,16,21,22,26,29-octamethyl-18-[(1S)-1-methylpropyl]-25-(piperidine-1-carbonyl)-3-[2-(3,4,5-trichlorophenyl)ethyl]spiro”, the step yield is on record as 47%.

For “(3S,9S,18S,21S,25S,28S,34S)-28-cyclohexyl-9-(cyclohexylmethyl)-7,10,13,16,21,22,26,29-octamethyl-18-[(1S)-1-methylpropyl]-25-(piperidine-1-carbonyl)-3-[2-[4-(trifluoromethyl)phenoxy]ethyl]spiro”, the step yield is 13%.

Consider “(3S,9S,18S,21S,25S,28S,34S,36R)-3-[2-[3-chloro-4-(trifluoromethyl)phenyl]ethyl]-28-cyclohexyl-9-(cyclohexylmethyl)-36-(2-hydroxyethoxy)-21-isobutyl-7,10,13,16,22,26,29-heptamethyl-18-[(1S)-1-methylpropyl]-25-(piperidine-1-carbonyl)spiro”, for which the step yield came out at 44%.

Turning to “(3S,9S,18S,21S,25S,28S,34S,36S)-3-[2-[3-chloro-4-(trifluoromethyl)phenyl]ethyl]-28-cyclohexyl-9-(cyclohexylmethyl)-36-(2-hydroxyethoxy)-21-isobutyl-7,10,13,16,22,26,29-heptamethyl-18-[(1S)-1-methylpropyl]-25-(piperidine-1-carbonyl)spiro”, the step yield was found to be 54%.

The substance “(5S,8S,11S,15S,18S,23aS,29S,35S,37aS)-8-((S)-sec-butyl)-35-(cyclohexylmethyl)-18-cyclopentyl-29-(4-(difluoromethyl)-3-fluorophenethyl)-11-isobutyl-5,6,12,16,19,33,36-heptamethyl-15-(piperidin-1-carbonyl)docosahydro-2H,4H-spiro” displayed a step yield of 42.7%.

Take “(6S,9S,13S,16S,22S,25S,31S,34S)-25-[(3-iodophenyl)methyl]-9,16-diisobutyl-4,10,14,19,19,20,29,32-octamethyl-6-[(1S)-1-methylpropyl]-22-(phenoxymethyl)-13-(piperidine-1-carbonyl)-31-(p-tolylmethyl)-1,4,7,10,14,17,20,23,26,29,32-undecazabicyclo”: the step yield stood at 29%.

Staying with this series, now noted: late stage modification step, through two steps.
In turn, “(3S,9S,18S,21S,25S,28S,34S,36R)-3-[2-[3-chloro-4-(trifluoromethyl)phenyl]ethyl]-9-(cyclopentylmethyl)-21-isobutyl-28-isopropyl-7,10,13,16,22,26,29-heptamethyl-18-[(1S)-1-methylpropyl]-25-(piperidine-1-carbonyl)-36-(triazol-1-yl)spiro” returned a step yield of 84% through two steps.
